Results from publication doi:10.1101/2022.01.12.476021.
These are yes or no findings as the source states them, for the method shown. For part of these data: In cells and extracts the contact can be indirect. Some binding calls cover weakened binding; strength is not graded here.

Protein sequences, listed by entry. Tags and fused reporters are not part of them.
UniProt P0AG99, whole entry: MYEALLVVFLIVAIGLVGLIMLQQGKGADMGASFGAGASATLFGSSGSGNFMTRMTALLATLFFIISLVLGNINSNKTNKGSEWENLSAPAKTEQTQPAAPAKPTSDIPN
UniProt P0AGA2, whole entry: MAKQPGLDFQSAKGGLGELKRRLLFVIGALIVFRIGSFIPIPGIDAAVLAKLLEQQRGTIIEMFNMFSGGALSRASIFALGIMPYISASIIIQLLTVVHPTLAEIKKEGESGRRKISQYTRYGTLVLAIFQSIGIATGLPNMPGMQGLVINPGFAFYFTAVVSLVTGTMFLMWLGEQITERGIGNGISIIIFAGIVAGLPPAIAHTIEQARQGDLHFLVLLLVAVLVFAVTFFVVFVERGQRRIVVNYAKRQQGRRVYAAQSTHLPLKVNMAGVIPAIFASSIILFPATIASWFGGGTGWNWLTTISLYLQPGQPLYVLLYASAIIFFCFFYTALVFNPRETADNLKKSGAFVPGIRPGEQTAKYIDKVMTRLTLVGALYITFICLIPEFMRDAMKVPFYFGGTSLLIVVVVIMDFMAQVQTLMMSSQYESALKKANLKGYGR

Experiments:
[1] = molecular target: SecG (E. coli (endogenous in BL21 (DE3))) (UniProt P0AG99); test: co-IP
[2] = molecular target: SecG (E. coli (endogenous in BL21 (DE3))) (UniProt P0AG99); test: SEC
[3] = molecular target: SecY (E. coli (endogenous in BL21 (DE3))) (UniProt P0AGA2); test: SEC

Measured: binding

B1: SecD (protein, UniProt P0AG90 1-615)
chain: MLNRYPLWKYVMLIVVIVIGLLYALPNLFGEDPAVQITGARGVAASEQTLIQVQKTLQEEKITAKSVALEEGAILARFDSTDTQLRAREALMGVMGDKYVVALNLAPATPRWLAAIHAEPMKLGLDLRGGVHFLMEVDMDTALGKLQEQNIDSLRSDLREKGIPYTTVRKENNYGLSITFRDAKARDEAIAYLSKRHPDLVISSQGSNQLRAVMSDARLSEAREYAVQQNINILRNRVNQLGVAEPVVQRQGADRIVVELPGIQDTARAKEILGATATLEFRLVNTNVDQAAAASGRVPGDSEVKQTREGQPVVLYKRVILTGDHITDSTSSQDEYNQPQVNISLDSAGGNIMSNFTKDNIGKPMATLFVEYKDSGKKDANGRAVLVKQEEVINIANIQSRLGNSFRITGINNPNEARQLSLLLRAGALIAPIQIVEERTIGPTLGMQNIEQGLEACLAGLLVSILFMIIFYKKFGLIATSALIANLILIVGIMSLLPGATLSMPGIAGIVLTLAVAVDANVLINERIKEELSNGRTVQQAIDEGYRGAFSSIFDANITTLIKVIILYAVGTGAIKGFAITTGIGVATSMFTAIVGTRAIVNLLYGGKRVKKLSI
binds: all assays above
